Results from the supplement of paper PMC7125110.
± gives the standard error. Many entries were measured with a wide error.

B1: glmS ribozyme (parent)
chain: AUAAAAGCGCCAGAACUACAGAAAUGUAGUUGACGAGGAGGAGGUUUAUCGAAUUUUCGGCGGAUGCCUCCAAA

Variants of: B1
Test: KM; higher = weaker cofactor use; RNA array
Details: with glucosamine-6-phosphate
Summary of the method: (§1)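 Barcoded ribozyme variants, transcribed in situ by E. coli RNA polymerase on sequenced MiSeq chips, were followed via a hybridised Cy3 probe at 37 °C. Glucosamine-6-phosphate ranged from 40 μM to 10 mM in HEPES/KCl/Mg(OAc)2 buffer. kobs came from decay fits to per-tile medians, and kcat and KM from weighted Michaelis–Menten fits.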

Q: How did the KM turn out when A53C C67G was run?
A: 493 ± 400 µM

Q: For A53C U55C, which KM is on record?
A: 1150 ± 480 µM

Q: For A53G C68G, which KM is on record?
A: 320 ± 160 µM

Q: For A53G C70G, which KM is on record?
A: 17.9 ± 11 µM

Q: A53G U54G was tested. Which KM did it give?
A: 169 ± 170 µM

Q: A53U C58A was tested. Which KM did it give?
A: 3010 ± 250 µM

Q: A53U G66U was tested. Which KM did it give?
A: 2320 ± 590 µM

Q: How did the KM turn out when A53U U56A was run?
A: 1820 ± 450 µM

Q: How did the KM turn out when A53U U69A was run?
A: 64.5 ± 38 µM

Q: How did the KM turn out when U54A C71U was run?
A: 79.9 ± 58 µM

Q: For U54A G59A, which KM is on record?
A: 4220 ± 1300 µM

Q: With U54A U56A as the variant, how does the KM read?
A: 2140 ± 380 µM

Q: How did the KM turn out when U54C C67G was run?
A: 534 ± 220 µM

Q: Which KM does the source give for U54C C67U here?
A: 222 ± 130 µM

Q: Which KM does the source give for U54C C68G here?
A: 446 ± 250 µM

Q: How did the KM turn out when U54G C68U was run?
A: 126 ± 96 µM

Q: U55A A64G was tested. Which KM did it give?
A: 1490 ± 810 µM

Q: With U55C A64U as the variant, how does the KM read?
A: 1210 ± 750 µM

Q: With U55C C58A as the variant, how does the KM read?
A: 2580 ± 1500 µM

Q: U55C C71A was tested. Which KM did it give?
A: 3820 ± 600 µM

Q: How did the KM turn out when U55C G66U was run?
A: 1220 ± 830 µM

Q: For U55C U69C, which KM is on record?
A: 13600 ± 6700 µM

Q: U55G C58G was tested. Which KM did it give?
A: 6790 ± 1400 µM

Q: Which KM does the source give for U55G G60U G63A G66C here?
A: 208 ± 140 µM

Q: Which KM does the source give for U55G G62U here?
A: 292 ± 160 µM

Q: With U55G U56G as the variant, how does the KM read?
A: 3060 ± 1800 µM

Q: Which KM does the source give for U56A G66C here?
A: 933 ± 490 µM

Q: How did the KM turn out when U56C U69C was run?
A: 1140 ± 1100 µM

Q: Which KM does the source give for U56G C71G here?
A: 588 ± 300 µM

Q: How did the KM turn out when U56G G66A was run?
A: 2460 ± 1300 µM

Q: U57A C58U was tested. Which KM did it give?
A: 17300 ± 1200 µM

Q: U57C G66U was tested. Which KM did it give?
A: 734 ± 530 µM

Q: For C58A C70U, which KM is on record?
A: 718 ± 270 µM

Q: For C58G C71U, which KM is on record?
A: 402 ± 99 µM

Q: How did the KM turn out when G59A C67U was run?
A: 2710 ± 2500 µM

Q: With G59A G66A as the variant, how does the KM read?
A: 118000 ± 9900 µM

Q: For G59U C61G, which KM is on record?
A: 57.7 ± 54 µM

Q: Which KM does the source give for G59U G66A here?
A: 3110 ± 100 µM

Q: G60C C68G was tested. Which KM did it give?
A: 263 ± 160 µM

Q: Which KM does the source give for G60C C70G here?
A: 1420 ± 1300 µM

Q: Which KM does the source give for G60U C67A C68U here?
A: 60.6 ± 48 µM

Q: With C61A C71A as the variant, how does the KM read?
A: 152 ± 130 µM

Q: For C61G G62C A64G U65A G66U C67G, which KM is on record?
A: 84.6 ± 56 µM

Q: How did the KM turn out when C61U C70U was run?
A: 1160 ± 870 µM

Q: Which KM does the source give for G62C G63C here?
A: 36 ± 33 µM

Q: G62U U65A was tested. Which KM did it give?
A: 29.5 ± 26 µM

Q: For A64U C71U, which KM is on record?
A: 4600 ± 4000 µM

Q: With A64U U65G as the variant, how does the KM read?
A: 487 ± 360 µM

Q: How did the KM turn out when U65A C67A was run?
A: 23.4 ± 15 µM

Q: U65A C71U was tested. Which KM did it give?
A: 732 ± 450 µM

Q: How did the KM turn out when U65A G66A C67G C71U was run?
A: 893 ± 690 µM

Q: G66A C68A was tested. Which KM did it give?
A: 917 ± 610 µM

Q: For G66A C70U, which KM is on record?
A: 1240 ± 660 µM

Q: Which KM does the source give for G66C C71A here?
A: 733 ± 370 µM

Q: With C67A U69C as the variant, how does the KM read?
A: 244 ± 170 µM

Q: Which KM does the source give for C67G C70A here?
A: 316 ± 170 µM

Q: For C70A C71G, which KM is on record?
A: 80.6 ± 53 µM

Q: With C70G C71U as the variant, how does the KM read?
A: 401 ± 170 µM

Variants of: B1
Test: self-cleavage kobs at 640 uM GlcN6P; higher = faster cleavage; RNA array
Details: with glucosamine-6-phosphate
Summary of the method: as §1

Q: Which “self-cleavage kobs at 640 uM GlcN6P” value does the source give for A53C C67G here?
A: 1.47e-05 ± 1.3e-05 s⁻¹

Q: How did the “self-cleavage kobs at 640 uM GlcN6P” value turn out when U55C A64U was run?
A: 1.2e-05 ± 1e-05 s⁻¹

Q: How did the “self-cleavage kobs at 640 uM GlcN6P” value turn out when G59A C67U was run?
A: 2.05e-05 ± 1.5e-05 s⁻¹

Q: With U65A G66A C67G C71U as the variant, how does the “self-cleavage kobs at 640 uM GlcN6P” value read?
A: 2.62e-05 ± 1.5e-05 s⁻¹

Q: How did the “self-cleavage kobs at 640 uM GlcN6P” value turn out when G66C C71A was run?
A: 5.3e-05 ± 3.1e-05 s⁻¹

Q: How did the “self-cleavage kobs at 640 uM GlcN6P” value turn out when A6U U57G C67G was run?
A: 3.14e-05 ± 3.1e-05 s⁻¹

Variants of: B1
Test: self-cleavage kobs at 40 uM GlcN6P; higher = faster cleavage; RNA array
Details: with glucosamine-6-phosphate
Summary of the method: as §1

Q: How did the “self-cleavage kobs at 40 uM GlcN6P” value turn out when A53G C68G was run?
A: 1.61e-05 ± 8.2e-06 s⁻¹

Q: With A53U G66U as the variant, how does the “self-cleavage kobs at 40 uM GlcN6P” value read?
A: 1.3e-05 ± 1.1e-05 s⁻¹

Q: C58A C70U was tested. Which “self-cleavage kobs at 40 uM GlcN6P” value did it give?
A: 2.42e-05 ± 1.4e-05 s⁻¹

Q: Which “self-cleavage kobs at 40 uM GlcN6P” value does the source give for G66A C68A here?
A: 2.8e-05 ± 2.5e-05 s⁻¹

Q: C70G C71U was tested. Which “self-cleavage kobs at 40 uM GlcN6P” value did it give?
A: 1.57e-05 ± 1.2e-05 s⁻¹

Q: With A6G A53G as the variant, how does the “self-cleavage kobs at 40 uM GlcN6P” value read?
A: 1.88e-05 ± 1.4e-05 s⁻¹

Q: A6U was tested. Which “self-cleavage kobs at 40 uM GlcN6P” value did it give?
A: < 1e-05 s⁻¹

Q: For A6U U57G C67G, which “self-cleavage kobs at 40 uM GlcN6P” value is on record?
A: 2.47e-05 ± 2.4e-05 s⁻¹

Q: How did the “self-cleavage kobs at 40 uM GlcN6P” value turn out when G7C C50G C67U was run?
A: 3.53e-05 ± 2.9e-05 s⁻¹

Q: For G7U G13U C16U C50G U56G G66U, which “self-cleavage kobs at 40 uM GlcN6P” value is on record?
A: 2.24e-05 ± 2.2e-05 s⁻¹

Q: For C8A G13U C50A C70G, which “self-cleavage kobs at 40 uM GlcN6P” value is on record?
A: 9.65e-05 ± 4.8e-05 s⁻¹

Q: With C8G C10U C70G as the variant, how does the “self-cleavage kobs at 40 uM GlcN6P” value read?
A: 3.92e-05 ± 2.8e-05 s⁻¹

Q: With C8G G9U C61G C71G as the variant, how does the “self-cleavage kobs at 40 uM GlcN6P” value read?
A: 4.03e-05 ± 2.7e-05 s⁻¹

Q: For C8U C10U C67G, which “self-cleavage kobs at 40 uM GlcN6P” value is on record?
A: 2.72e-05 ± 2e-05 s⁻¹

Variants of: B1
Test: self-cleavage kobs at 10000 uM GlcN6P; higher = faster cleavage; RNA array
Details: with glucosamine-6-phosphate
Summary of the method: as §1

Q: Which “self-cleavage kobs at 10000 uM GlcN6P” value does the source give for A53G C68G here?
A: 0.00202 ± 0.0012 s⁻¹

Q: Which “self-cleavage kobs at 10000 uM GlcN6P” value does the source give for G59A G66A here?
A: 1.94e-05 ± 1e-05 s⁻¹

Q: For G59U G66A, which “self-cleavage kobs at 10000 uM GlcN6P” value is on record?
A: 2.03e-05 ± 1.3e-05 s⁻¹

Q: For U65A C67A, which “self-cleavage kobs at 10000 uM GlcN6P” value is on record?
A: 0.00291 ± 0.0016 s⁻¹

Q: G7C C50G C67U was tested. Which “self-cleavage kobs at 10000 uM GlcN6P” value did it give?
A: 3.11e-05 ± 1.6e-05 s⁻¹

Q: For C8A G13U C50A C70G, which “self-cleavage kobs at 10000 uM GlcN6P” value is on record?
A: 3.91e-05 ± 2.9e-05 s⁻¹

Q: With C8G C10U C70G as the variant, how does the “self-cleavage kobs at 10000 uM GlcN6P” value read?
A: 3.05e-05 ± 2.1e-05 s⁻¹

Q: How did the “self-cleavage kobs at 10000 uM GlcN6P” value turn out when C8G G9U C61G C71G was run?
A: 3.51e-05 ± 2.5e-05 s⁻¹

Variants of: B1
Test: self-cleavage kobs at 160 uM GlcN6P; higher = faster cleavage; RNA array
Details: with glucosamine-6-phosphate
Summary of the method: as §1

Q: For A53U C58A, which “self-cleavage kobs at 160 uM GlcN6P” value is on record?
A: 1.41e-05 ± 8.5e-06 s⁻¹

Q: Which “self-cleavage kobs at 160 uM GlcN6P” value does the source give for U54C C68G here?
A: 2.68e-05 ± 1.9e-05 s⁻¹

Q: Which “self-cleavage kobs at 160 uM GlcN6P” value does the source give for U55C C71A here?
A: 2.08e-05 ± 1.4e-05 s⁻¹

Q: How did the “self-cleavage kobs at 160 uM GlcN6P” value turn out when U55C U69C was run?
A: 2.48e-05 ± 1.8e-05 s⁻¹

Q: Which “self-cleavage kobs at 160 uM GlcN6P” value does the source give for G66A C68A here?
A: 2.08e-05 ± 1.5e-05 s⁻¹

Q: With G66C C71A as the variant, how does the “self-cleavage kobs at 160 uM GlcN6P” value read?
A: 2.43e-05 ± 1.3e-05 s⁻¹

Variants of: B1
Test: self-cleavage kobs at 2500 uM GlcN6P; higher = faster cleavage; RNA array
Details: with glucosamine-6-phosphate
Summary of the method: as §1

Q: How did the “self-cleavage kobs at 2500 uM GlcN6P” value turn out when U54A G59A was run?
A: 2.31e-05 ± 1.4e-05 s⁻¹

Q: With U56C U69C as the variant, how does the “self-cleavage kobs at 2500 uM GlcN6P” value read?
A: 3.12e-05 ± 1.7e-05 s⁻¹

Q: With G59A C67U as the variant, how does the “self-cleavage kobs at 2500 uM GlcN6P” value read?
A: 1.58e-05 ± 1.1e-05 s⁻¹

Q: With U65A C67A as the variant, how does the “self-cleavage kobs at 2500 uM GlcN6P” value read?
A: 0.00287 ± 0.0016 s⁻¹

Q: C67A U69C was tested. Which “self-cleavage kobs at 2500 uM GlcN6P” value did it give?
A: 0.01 ± 0.0094 s⁻¹

Q: With A6U U57G C67G as the variant, how does the “self-cleavage kobs at 2500 uM GlcN6P” value read?
A: 4.42e-05 ± 3.7e-05 s⁻¹
